Source: PubChem BioAssay AID504444 (National Center for Advancing Translational Sciences (NCATS), 2011)
In all, about 360,000 compounds went through this assay and about 7,500 (2.1%) were called active. The inconclusive results got no clear call from the source; some entries with a clear call stand among them for comparison. Calls come from the whole dose curve; as a rule, active = well fitted inhibition curve with a large enough effect; inconclusive = small, poorly fitted or top-dose-only effect, or effect the other way; inactive = flat fitted curve, though single readings scatter. Potencies beside an inconclusive call are fits to weak or partial responses and may not hold up. More than one record can exist for a structure, and the calls need not agree.

test: Nrf2 qHTS screen for inhibitors; details: A549 ARE-Fluc reporter, luciferase luminescence, 18-24 h; series mostly up to 46 µM; note: nearly all actives have a fitted effect of over 60% in size
In short: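 Nrf2 activity is the BugLite luminescence, read 15 min after reagent at room temperature, following CellTiter-Fluor cytotoxicity readout (30 min, 37C). Compound titrations were applied for 18-24 h to 5000 A549 ARE_Fluc cells/well in 5% FBS OPTI-MEM.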
Potency is the fitted concentration of half-maximal effect.

Row | SMILES | Potency
1 | CCOC(=O)Cc1csc(NC(=O)c2ccc3ccccc3n2)n1 | inconclusive: 29.1 µM [activator, single point]
2 | CC(C)C(=O)N1CCN(c2nc(-c3ccccc3)c3c(c2C#N)CC(C)(C)OC3)CC1 | inconclusive: 11.6 µM [falling, partial curve]
3 | COc1ccc(C2C(C#N)=C(N)Oc3cc(O)ccc32)cc1 (stereo not drawn) | inconclusive: 14.6 µM [activator, partial curve, poor fit]
4 | Cc1ccc(-c2nc(CS(=O)(=O)CC(=O)N3CCc4ccccc4C3)c(C)o2)cc1 | inconclusive: 20.6 µM [falling, single point]
5 | CCOc1ccc(N2C(=O)Nc3ccc(Br)cc3C2(O)C(=O)NCCCN(C)C)cc1 (stereo not drawn) | inactive
6 | Cc1ccnc(NC(=O)c2ccc(S(=O)(=O)N3CCCCCC3)cc2)c1 | inconclusive: 3.66 µM [activator, full curve]
7 | Cc1ccccc1N/N=C/c1c(C)nc2ccccn12 | inconclusive: 18.4 µM [falling, single point]
8 | O=C(C1CC(=O)N(C2CCCC2)C1)N1CCC(Cc2ccccc2)CC1 (stereo not drawn) | inconclusive: 6.51 µM [falling, partial curve]
9 | CCOc1ccccc1CNC(=O)C1CCN(c2nnc(C)c3c(C)n(-c4ccc(C)cc4)nc23)CC1 | active: 23.1 µM
10 | Cn1c(=O)oc2cc(S(=O)(=O)NCCC(=O)N3CCN(c4ccccc4F)CC3)ccc21 | inconclusive: 9.2 µM [falling, partial curve, poor fit]
11 | COC(=O)CCC/C=C1/SCC(NC(=O)c2ccccc2)C1O (stereo not drawn) | inactive
12 | COC(=O)N/N=C/c1ccc(-c2cc(Cl)ccc2Cl)o1 | inconclusive: 29.1 µM [falling, single point]
13 | O=C(CC1(O)C(=O)N(CCc2ccccc2)c2ccc(Br)cc21)c1ccccc1 (stereo not drawn) | inactive
14 | COc1ccc(C(=O)Nc2ccc(S(=O)(=O)N(C)c3ccccc3)cc2)cc1 | active: 20.6 µM
15 | Cn1cnnc1SCC(=O)Nc1ccc2nc(SCc3cccc4ccccc34)sc2c1 | inconclusive: 20.6 µM [falling, single point]
16 | O=c1[nH]c2ccccc2n2c(-c3ccccc3)nnc12 | inconclusive: 29.1 µM [falling, partial curve, poor fit]
17 | CC1CCN(C(=O)CSc2ccc(-c3cccc([N+](=O)[O-])c3)nn2)CC1 | inconclusive: 20.6 µM [falling, single point]
18 | Nc1nc(SCC(=O)N2CCc3ccccc32)[nH]c(=O)c1-c1ccccc1 | inconclusive: 29.1 µM [falling, single point]

Some of the entries so far, comma-delimited:
Row,SMILES,Potency
12,COC(=O)N/N=C/c1ccc(-c2cc(Cl)ccc2Cl)o1,"inconclusive: 29.1 µM [falling, single point]"
13,O=C(CC1(O)C(=O)N(CCc2ccccc2)c2ccc(Br)cc21)c1ccccc1 (stereo not drawn),inactive
